Consider 30 targets from the supplement of paper PMC10849652.

Chains of the proteins cited; added tags and fusions are not shown. Lines headed by an entry give the natural chain unless they say otherwise; changes in a name come on top.
UniProt P60953, whole entry, looked up: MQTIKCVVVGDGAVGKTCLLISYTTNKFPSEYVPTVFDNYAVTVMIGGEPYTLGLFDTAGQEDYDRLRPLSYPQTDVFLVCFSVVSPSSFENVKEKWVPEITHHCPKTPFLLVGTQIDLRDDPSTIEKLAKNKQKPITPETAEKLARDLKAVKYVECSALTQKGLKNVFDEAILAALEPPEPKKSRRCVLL
UniProt P30304: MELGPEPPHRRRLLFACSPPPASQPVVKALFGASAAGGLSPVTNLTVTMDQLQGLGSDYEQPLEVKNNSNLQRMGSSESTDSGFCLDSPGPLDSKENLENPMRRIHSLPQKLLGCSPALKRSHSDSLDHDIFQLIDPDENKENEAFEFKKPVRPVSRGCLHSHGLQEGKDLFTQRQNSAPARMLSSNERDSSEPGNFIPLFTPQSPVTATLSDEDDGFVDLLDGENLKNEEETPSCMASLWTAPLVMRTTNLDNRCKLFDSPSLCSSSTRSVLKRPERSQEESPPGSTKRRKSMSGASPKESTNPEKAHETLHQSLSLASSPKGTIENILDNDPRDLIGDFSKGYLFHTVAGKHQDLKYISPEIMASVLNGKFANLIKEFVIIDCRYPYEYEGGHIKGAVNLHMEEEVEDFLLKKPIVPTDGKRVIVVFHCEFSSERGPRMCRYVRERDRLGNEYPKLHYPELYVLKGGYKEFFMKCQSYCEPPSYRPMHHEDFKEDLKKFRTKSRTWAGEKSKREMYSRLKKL
UniProt Q96A19: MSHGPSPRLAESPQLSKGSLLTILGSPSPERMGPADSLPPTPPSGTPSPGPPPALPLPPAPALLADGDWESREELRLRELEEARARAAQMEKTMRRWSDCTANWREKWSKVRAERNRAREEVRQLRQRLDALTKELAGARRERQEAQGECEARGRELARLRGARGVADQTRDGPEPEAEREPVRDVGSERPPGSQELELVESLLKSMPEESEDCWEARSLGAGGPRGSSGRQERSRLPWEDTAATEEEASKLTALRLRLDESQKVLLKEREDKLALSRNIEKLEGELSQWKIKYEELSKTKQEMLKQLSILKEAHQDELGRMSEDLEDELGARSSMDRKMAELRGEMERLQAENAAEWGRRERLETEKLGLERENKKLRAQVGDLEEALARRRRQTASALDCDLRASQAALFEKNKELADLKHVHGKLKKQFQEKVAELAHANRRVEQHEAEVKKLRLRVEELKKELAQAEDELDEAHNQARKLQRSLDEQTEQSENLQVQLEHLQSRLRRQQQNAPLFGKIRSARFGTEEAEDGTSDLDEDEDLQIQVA
UniProt Q8N9Z2: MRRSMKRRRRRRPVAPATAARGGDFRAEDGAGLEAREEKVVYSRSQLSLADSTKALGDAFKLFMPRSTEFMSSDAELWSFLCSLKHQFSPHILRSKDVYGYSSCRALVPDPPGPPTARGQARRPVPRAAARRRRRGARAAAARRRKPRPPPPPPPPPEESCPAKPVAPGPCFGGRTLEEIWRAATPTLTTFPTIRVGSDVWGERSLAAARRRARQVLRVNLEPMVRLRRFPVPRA
UniProt Q96A33: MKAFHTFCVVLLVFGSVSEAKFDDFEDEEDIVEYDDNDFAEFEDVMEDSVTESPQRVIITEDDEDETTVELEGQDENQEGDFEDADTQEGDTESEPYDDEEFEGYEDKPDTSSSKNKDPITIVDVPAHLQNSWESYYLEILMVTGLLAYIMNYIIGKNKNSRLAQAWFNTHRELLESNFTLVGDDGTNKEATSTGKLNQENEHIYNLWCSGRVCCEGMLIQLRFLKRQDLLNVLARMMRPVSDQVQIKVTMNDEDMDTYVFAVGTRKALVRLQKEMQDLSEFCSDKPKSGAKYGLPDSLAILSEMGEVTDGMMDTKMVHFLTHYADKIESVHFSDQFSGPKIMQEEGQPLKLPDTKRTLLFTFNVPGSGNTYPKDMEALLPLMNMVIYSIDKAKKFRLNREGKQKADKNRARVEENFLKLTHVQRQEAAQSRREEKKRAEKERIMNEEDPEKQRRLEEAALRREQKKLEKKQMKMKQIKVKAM
UniProt Q8IWP9: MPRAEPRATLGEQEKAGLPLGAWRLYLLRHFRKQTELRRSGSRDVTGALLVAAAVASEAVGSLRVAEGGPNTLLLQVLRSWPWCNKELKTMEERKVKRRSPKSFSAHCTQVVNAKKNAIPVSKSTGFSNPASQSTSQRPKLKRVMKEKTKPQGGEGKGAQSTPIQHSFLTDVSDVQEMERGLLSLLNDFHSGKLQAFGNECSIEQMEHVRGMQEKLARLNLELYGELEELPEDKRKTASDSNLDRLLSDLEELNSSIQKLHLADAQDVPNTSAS
UniProt P20138, whole entry, looked up: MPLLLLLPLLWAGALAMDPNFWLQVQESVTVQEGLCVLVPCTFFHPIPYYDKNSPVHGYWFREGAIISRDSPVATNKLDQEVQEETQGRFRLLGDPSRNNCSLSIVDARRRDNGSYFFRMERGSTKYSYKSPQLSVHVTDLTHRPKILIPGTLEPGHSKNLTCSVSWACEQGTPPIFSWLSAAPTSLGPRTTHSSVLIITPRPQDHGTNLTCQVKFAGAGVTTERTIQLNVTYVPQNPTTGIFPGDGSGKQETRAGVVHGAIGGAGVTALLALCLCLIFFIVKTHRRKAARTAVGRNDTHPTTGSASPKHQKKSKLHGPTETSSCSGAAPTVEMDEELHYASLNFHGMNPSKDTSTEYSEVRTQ
UniProt O14618: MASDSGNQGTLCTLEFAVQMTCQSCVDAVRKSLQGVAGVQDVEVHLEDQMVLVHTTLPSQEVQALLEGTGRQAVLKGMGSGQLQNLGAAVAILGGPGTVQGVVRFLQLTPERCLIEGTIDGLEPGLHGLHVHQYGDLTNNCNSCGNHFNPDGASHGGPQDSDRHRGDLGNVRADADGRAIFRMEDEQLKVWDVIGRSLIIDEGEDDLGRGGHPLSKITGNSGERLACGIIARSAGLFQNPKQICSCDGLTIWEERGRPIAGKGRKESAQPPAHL
UniProt Q6PK04: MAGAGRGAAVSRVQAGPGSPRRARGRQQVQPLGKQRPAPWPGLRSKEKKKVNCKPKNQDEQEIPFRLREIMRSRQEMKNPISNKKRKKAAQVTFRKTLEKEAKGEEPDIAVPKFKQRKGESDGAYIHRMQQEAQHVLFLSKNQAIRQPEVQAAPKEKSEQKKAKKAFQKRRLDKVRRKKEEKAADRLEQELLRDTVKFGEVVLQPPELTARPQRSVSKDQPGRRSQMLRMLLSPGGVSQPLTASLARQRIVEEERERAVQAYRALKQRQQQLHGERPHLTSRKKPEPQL
UniProt Q8IVM0: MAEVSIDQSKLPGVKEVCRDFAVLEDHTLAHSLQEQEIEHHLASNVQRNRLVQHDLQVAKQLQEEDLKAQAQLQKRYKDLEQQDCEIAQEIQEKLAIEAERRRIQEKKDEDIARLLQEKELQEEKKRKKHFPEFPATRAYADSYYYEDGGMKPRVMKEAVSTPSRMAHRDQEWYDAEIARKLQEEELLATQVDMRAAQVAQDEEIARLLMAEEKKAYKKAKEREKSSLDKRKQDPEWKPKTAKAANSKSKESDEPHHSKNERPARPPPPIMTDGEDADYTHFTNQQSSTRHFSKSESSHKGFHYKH
UniProt Q86X55: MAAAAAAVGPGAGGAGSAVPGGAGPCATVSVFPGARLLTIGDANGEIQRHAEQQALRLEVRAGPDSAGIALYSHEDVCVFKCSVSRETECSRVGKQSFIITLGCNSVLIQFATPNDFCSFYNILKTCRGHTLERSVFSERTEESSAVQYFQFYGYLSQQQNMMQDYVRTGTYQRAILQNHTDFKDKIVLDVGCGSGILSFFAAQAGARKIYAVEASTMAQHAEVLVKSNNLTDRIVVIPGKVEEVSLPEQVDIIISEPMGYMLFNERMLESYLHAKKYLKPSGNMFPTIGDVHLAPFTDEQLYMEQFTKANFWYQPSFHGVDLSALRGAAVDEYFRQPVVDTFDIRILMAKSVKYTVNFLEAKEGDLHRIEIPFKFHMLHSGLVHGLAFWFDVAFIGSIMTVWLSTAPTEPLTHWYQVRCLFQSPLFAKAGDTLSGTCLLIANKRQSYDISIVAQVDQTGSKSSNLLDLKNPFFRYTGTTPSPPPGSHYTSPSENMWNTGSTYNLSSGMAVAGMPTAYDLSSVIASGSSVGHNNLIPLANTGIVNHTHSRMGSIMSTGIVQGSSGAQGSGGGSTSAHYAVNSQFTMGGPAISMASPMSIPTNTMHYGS
UniProt Q4VC31: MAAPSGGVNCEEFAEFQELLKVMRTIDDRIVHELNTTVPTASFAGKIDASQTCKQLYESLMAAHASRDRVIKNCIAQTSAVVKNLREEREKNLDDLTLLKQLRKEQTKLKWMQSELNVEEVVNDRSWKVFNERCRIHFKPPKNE
UniProt P0C221: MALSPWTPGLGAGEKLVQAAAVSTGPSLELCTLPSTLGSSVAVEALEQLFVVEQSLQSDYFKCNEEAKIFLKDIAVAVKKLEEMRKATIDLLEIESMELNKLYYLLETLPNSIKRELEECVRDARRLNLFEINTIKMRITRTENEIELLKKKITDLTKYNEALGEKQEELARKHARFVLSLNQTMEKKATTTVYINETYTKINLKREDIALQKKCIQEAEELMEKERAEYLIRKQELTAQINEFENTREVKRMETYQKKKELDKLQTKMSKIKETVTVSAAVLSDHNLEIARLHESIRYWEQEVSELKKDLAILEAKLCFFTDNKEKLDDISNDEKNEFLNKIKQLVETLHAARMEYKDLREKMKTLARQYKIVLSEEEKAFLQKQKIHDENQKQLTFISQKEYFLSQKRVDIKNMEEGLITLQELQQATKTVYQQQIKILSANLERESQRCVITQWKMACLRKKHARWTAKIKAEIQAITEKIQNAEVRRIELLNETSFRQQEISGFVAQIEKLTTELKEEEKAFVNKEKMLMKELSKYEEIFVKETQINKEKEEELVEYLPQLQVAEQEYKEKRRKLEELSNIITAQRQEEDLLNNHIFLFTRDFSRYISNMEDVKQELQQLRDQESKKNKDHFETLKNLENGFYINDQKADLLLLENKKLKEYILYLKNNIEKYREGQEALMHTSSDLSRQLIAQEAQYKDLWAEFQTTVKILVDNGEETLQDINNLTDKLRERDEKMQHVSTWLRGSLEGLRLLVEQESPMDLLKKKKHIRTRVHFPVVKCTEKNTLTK
UniProt Q96F63: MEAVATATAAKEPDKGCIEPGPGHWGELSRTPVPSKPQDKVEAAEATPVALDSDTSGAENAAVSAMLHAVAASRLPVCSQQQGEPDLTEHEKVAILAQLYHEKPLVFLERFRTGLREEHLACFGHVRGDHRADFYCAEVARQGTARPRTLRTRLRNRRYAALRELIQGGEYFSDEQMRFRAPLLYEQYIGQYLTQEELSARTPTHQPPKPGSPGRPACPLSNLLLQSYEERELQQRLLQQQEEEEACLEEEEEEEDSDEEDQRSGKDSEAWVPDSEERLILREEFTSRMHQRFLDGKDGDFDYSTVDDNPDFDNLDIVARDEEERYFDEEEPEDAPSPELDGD
UniProt P55212: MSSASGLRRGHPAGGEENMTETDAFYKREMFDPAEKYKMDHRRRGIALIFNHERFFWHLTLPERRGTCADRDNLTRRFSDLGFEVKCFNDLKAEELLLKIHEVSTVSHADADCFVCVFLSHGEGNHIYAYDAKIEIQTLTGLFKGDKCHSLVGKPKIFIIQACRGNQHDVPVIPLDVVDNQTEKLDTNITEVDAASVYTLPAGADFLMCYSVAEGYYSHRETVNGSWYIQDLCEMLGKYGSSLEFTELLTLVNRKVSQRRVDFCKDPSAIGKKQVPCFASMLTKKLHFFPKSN
UniProt Q9UJX2, whole entry, looked up: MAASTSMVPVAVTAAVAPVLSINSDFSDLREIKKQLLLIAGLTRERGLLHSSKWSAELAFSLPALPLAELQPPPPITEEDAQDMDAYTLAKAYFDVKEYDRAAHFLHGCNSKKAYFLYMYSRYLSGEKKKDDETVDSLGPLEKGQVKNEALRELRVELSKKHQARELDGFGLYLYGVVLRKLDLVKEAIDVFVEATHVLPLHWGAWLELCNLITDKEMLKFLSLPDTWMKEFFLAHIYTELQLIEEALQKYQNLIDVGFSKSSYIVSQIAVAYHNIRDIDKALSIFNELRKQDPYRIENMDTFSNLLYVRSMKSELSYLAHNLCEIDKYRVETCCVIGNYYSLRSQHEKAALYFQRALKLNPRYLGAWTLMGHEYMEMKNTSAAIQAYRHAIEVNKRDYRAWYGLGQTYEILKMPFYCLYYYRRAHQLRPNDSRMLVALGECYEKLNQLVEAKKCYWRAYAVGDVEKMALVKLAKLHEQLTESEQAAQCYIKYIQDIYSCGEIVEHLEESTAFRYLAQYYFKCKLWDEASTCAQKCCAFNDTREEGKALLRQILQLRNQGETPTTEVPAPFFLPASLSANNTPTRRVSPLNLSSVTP
UniProt Q13185: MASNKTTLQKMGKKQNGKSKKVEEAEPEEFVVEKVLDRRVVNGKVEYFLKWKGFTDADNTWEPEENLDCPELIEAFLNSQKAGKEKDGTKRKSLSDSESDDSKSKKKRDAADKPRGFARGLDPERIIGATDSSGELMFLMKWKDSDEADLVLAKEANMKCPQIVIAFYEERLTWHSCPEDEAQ

The other results are listed elsewhere or left out.

Compound in the test: c1cn2cc(-c3ccc4cn[nH]c4c3)nc(Nc3ccc(N4CCOCC4)cc3)c2n1 [entospletinib]
Description: log2 fold change, soluble protein after heating vs DMSO (PISA); higher = thermal stabilisation; K562 cells, 10 uM, 30 min; active = over 0.2 and 3.5 SD of the protein, either way, in both replicates (recomputed). The procedure, abridged:
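Soluble protein was defined as the supernatant after 21,000xg for 90 min. It came from K562 cells at 2×10^6 cells/mL given 10 μM compound for 30 min, heated in aliquots for 3 min across 48°C-58°C, pooled, and extracted in PBS with 0.5% NP-40 at 4°C, and was quantified by TMTpro 16plex LC-MS/MS with equalised channel sums. Thermal stability against control samples, from duplicates, is reported as log2 fold change.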
Take CCNB2 (UniProt O95067): the log2 fold change was inactive: 0.027.
For CAST isoform 6 (UniProt P20810) the value was inactive: 0.029.
For CAVIN2 (UniProt O95810) the value was inactive: 0.07; for CC2D1A (UniProt Q6P1N0), inactive: 0.013.
In the case of CDC42 (UniProt P60953), the log2 fold change is inactive: 0.077.
The value for CDC25A (UniProt P30304) was inactive: -0.041; that for CCDC115 (UniProt Q96NT0) was inactive: -0.01.
In the case of CD320 (UniProt Q9NPF0), the log2 fold change is inactive: 0.041.
For CDC42 isoform 1 (UniProt P60953) the value was inactive: -0.023.
Regarding CCDC91 (UniProt Q7Z6B0), the log2 fold change is inactive: -0.005.
For CCDC102A (UniProt Q96A19) the value was inactive: 0.077; for CCDC71L isoform 2 (UniProt Q8N9Z2), inactive: -0.252.
For CCDC47 (UniProt Q96A33) the value was inactive: -0.031; for CCDC28A (UniProt Q8IWP9), inactive: 0; for CCDC22 (UniProt O60826), inactive: 0.001.
For CD33 (UniProt P20138) the value was inactive: 0.032; for CDC40 (UniProt O60508), inactive: 0.188; for CCS (UniProt O14618), inactive: -0.019.
As to CCDC137 (UniProt Q6PK04), the log2 fold change was inactive: 0.027.
The value for CARS2 (UniProt Q9HA77) was inactive: 0.055; that for CCDC50 (UniProt Q8IVM0) was inactive: 0.009.
Turning to CARM1 (UniProt Q86X55), the log2 fold change was inactive: -0.008.
For CCDC58 (UniProt Q4VC31) the value was inactive: -0.011; for CCDC124 (UniProt Q96CT7), inactive: -0.02; for CCDC175 (UniProt P0C221), inactive: -0.014.
For CCDC97 (UniProt Q96F63) the value was inactive: -0.134; for CASP6 (UniProt P55212), inactive: -0.027.
For CDC23 (UniProt Q9UJX2) the value was inactive: 0.059; for CBX3 (UniProt Q13185), inactive: 0.092.
With CDC37 (UniProt K7EL68), the log2 fold change was inactive: -0.023.
